No constants are given. Whether binding was seen depends on the method and setting. Some results given as binding are weak or reduced against the parent protein; the word gives no strength.
Columns and labels:
[1] = biological target: canine Ecad (canine) (UniProt F1PAA9); assay: phage display with Ecad selection (legend of FIG. 23A)
[2] = biological target: human Ecad (human) (UniProt P12830); assay: as above
[3] = biological target: canine Ecad (canine) (UniProt F1PAA9); assay: phage display; FIG. 6 co-culture of canine Ecad+ cells with CAR T cells
[4] = biological target: human Ecad (human) (UniProt P12830); assay: as above
[5] = biological target: canine Ecad (canine) (UniProt F1PAA9); assay: phage display selection; phage ELISA and CAR T killing cited for mouse
[6] = biological target: human Ecad (human) (UniProt P12830); assay: as above

The chains behind the UniProt entries cited, without tags or fusion partners. Residues count along the entry.
UniProt F1PAA9, residues 157-885: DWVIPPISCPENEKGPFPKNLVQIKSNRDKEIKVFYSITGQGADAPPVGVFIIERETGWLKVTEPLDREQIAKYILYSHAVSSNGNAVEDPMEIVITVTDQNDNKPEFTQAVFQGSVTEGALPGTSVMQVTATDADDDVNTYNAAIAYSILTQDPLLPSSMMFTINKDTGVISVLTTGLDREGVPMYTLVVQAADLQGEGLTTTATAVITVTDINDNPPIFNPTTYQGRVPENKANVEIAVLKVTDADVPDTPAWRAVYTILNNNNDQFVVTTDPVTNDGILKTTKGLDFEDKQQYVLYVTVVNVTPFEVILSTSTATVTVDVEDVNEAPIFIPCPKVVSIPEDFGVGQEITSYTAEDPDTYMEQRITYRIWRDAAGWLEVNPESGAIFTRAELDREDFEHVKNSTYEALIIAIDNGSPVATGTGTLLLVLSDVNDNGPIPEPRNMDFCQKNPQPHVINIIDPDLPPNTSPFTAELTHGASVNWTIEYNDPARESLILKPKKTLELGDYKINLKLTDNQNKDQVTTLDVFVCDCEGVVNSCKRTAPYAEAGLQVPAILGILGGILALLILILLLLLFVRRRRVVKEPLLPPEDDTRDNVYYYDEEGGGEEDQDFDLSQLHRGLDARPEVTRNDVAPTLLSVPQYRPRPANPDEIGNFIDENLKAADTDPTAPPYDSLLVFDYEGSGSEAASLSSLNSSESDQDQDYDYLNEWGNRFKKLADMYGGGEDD
UniProt P12830, residues 155-707: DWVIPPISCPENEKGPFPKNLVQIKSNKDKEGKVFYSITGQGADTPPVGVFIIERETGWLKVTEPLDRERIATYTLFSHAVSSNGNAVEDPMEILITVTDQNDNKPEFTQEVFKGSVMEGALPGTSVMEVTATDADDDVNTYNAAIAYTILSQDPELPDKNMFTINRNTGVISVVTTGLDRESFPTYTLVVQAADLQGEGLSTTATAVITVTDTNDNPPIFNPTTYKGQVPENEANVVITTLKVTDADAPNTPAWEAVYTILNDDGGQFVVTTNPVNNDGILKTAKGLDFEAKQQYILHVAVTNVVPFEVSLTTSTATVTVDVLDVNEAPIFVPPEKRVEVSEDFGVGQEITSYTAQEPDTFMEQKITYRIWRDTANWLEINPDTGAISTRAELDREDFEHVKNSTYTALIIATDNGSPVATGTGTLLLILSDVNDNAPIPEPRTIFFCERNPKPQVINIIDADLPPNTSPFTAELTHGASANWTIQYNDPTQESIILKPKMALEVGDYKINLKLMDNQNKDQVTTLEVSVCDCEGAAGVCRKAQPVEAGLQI

Measured: binding

B1: hmcECAD.6 scFv clone (scFv)
scFv: LPVLTQPPSASGTPGQRVTISCSGSSSNIGSNYVYWYQQLPGTAPKLLIYRNNQRPSGVPDRFSGSKSGTSASLAISGLQSEDEADYYCASWDTSLRAWVFGGGTKLTVLGEGKSSGSGSESKASEVQLVQSGGGLVQPGGSLRLSCAASGFTFSSYSMNWVRQAPGKGLEWVSYISSSSSTIYYVDSVKGRFTISRDNAKNSLYLQMDSLRAEDTAVYYCARGGRVLVGALFDYWGQGTLVTVSS
notes: Human scFv from a naive phage display library; also called anti-hmcECAD.6; anti-Ecad scFv
binds: all assays above
